These are yes or no findings as the source states them, for the method shown. In cells and extracts the contact can be indirect. Some results given as binding are weak or reduced against the parent protein; the word gives no strength.

Amino acid sequences for entries named in this document (tags omitted). A change or cut given only in a name is not applied to a line headed by its entry.
UniProt Q9D752: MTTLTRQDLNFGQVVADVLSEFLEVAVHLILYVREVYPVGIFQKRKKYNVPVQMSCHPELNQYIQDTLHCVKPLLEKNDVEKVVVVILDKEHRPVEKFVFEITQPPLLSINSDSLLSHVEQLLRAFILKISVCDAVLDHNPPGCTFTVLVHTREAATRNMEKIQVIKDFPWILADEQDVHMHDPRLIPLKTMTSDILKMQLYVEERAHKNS

What all share (assay): co-IP; anti-Rev7 (10 ug) covalently attached to magnetic beads, incubated with 1 mg of protein extract of the indicated KP cell line for 2 h at room temperature; eluates blotted for Ran, Trip13 and Rev7; IgG control
For experiment [1], the target named is Rev7 (endogenous, wild-type KP cells) (mouse (endogenous in KP cells)) (UniProt Q9D752).
The target of experiment [2] is Rev7^K44A/R124A/A135D (mouse) (UniProt Q9D752).
The target of experiment [3] is wild-type mouse Rev7 expressed in Rev7^-/- KP cells (mouse) (UniProt Q9D752).

B1: Trip13 (protein, UniProt Q3UA06 1-432)
chain: MDEAVGDLKQALPCVAESPAVHVEVLQRSGSTAKKEDIKSSVYRLLNRHNIVFGDYVWTEFDDPFLSRNVQSVSIVDTELKAKDPQPIDLSACTIALHIFQLNEEGPSSENLDEETENIIAASHWVLPAAEFHGLWDSLVYDVEVKSHLLDYVMTTVLFSDKNVDSNLITWNRVVLLHGPPGTGKTSLCKALAQKLTIRLSSRYRYGQLIEINSHSLFSKWFSESGKLVTKMFQKIQDLIDDKEALVFVLIDEVESLTAARNACRAGAEPSDAIRVVNAVLTQIDQIKRHSNVVILTTSNITEKIDVAFVDRADIKQYIGPPSAAAIFKIYLSCLEELMKCQIIYPRQQLLTLRELEMIGFIENNVSKLSLLLSEISRKSEGLSGRVLRKLPFLAHALYIQAPSVTIEGFLQALSLAVDKQFEEKKKLSAYV
Regarding B1, the binding entry in experiment [1] is recorded as “binds”; in experiment [2], “no binding”; in experiment [3], “binds”.

The values are drawn from PMC10649693.
